This note sets out measurements from the supplement of paper PMC6143611.

Where a name gives a salt, the structure may show the parent alone. ± gives the uncertainty stated by the source. This is one part of the list. Plates or batches differ in their baseline, so values are only roughly comparable.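 A heat-shock-induced fluorescent stripe was set in larval rod outer segments at 6 dpf. Shedding distance ran from stripe to outer segment tip, measured by confocal stacks in about three fish per compound. Controls: 0.2% DMSO vehicle. Flagged compounds showed ≥20% change from same-week control, p < 0.001 (Dunnett test on mixed-effects models).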

Test [1] deals with Danio rerio larva rod photoreceptor outer segment. Kind of test: rod outer segment growth distance Dg, difference from same-week DMSO control mean; higher = more outer segment growth. The conditions noted are these: 20 µM; treatment time: 4 days (6-10 dpf).
For test [2] the test system is unchanged. Kind of test: rod outer segment shedding distance Ds, difference from same-week DMSO control mean; higher = less outer segment shedding. The conditions noted are these: 20 µM; treatment time: 4 days (6-10 dpf).

Take `CS(=O)(=O)c1cccc(CNc2nc(Nc3ccc4c(c3)CCC(=O)N4)ncc2C(F)(F)F)c1`: the “rod outer segment growth distance Dg” value in test [1] is -0.9 ± 0.27 um. For the same compound, the “rod outer segment shedding distance Ds” value in test [2] is -0.71 ± 0.31 um.
The like results for `COC(c1ccccc1)(c1ccccc1)[C@H](Oc1nc(C)cc(C)n1)C(=O)O` [Ambrisentan] were, in that order, 0.98 ± 0.23 um and -0.23 ± 0.27 um.
`CC(C)c1cc(C(C)C)c(CC(=O)NS(=O)(=O)Oc2c(C(C)C)cccc2C(C)C)c(C(C)C)c1` [Avasimibe]: the “rod outer segment growth distance Dg” value in test [1] was -1.13 ± 0.23 um. Further, in test [2], the “rod outer segment shedding distance Ds” value is -0.69 ± 0.27 um.
Consider `CS(=O)(=O)OCCCCOS(C)(=O)=O` [Busulfan], for which the “rod outer segment growth distance Dg” value in test [1] was 0.25 ± 0.17 um. Also, in test [2], the “rod outer segment shedding distance Ds” value was 0.54 ± 0.18 um.
For `COc1ccc([C@@H]2CC(=O)c3c(O)cc(O)cc3O2)cc1O` [Hesperetin], in that order: -0.55 ± 0.25 um and 0.29 ± 0.27 um.
For `Cc1cc(OCCCS(C)(=O)=O)cc(C)c1-c1cccc(COc2ccc3c(c2)OC[C@H]3CC(=O)O)c1`, in that order: -0.57 ± 0.17 um and -0.76 ± 0.12 um.
The like results for `Cc1cccc(Nc2ccncc2S(=O)(=O)NC(=O)NC(C)C)c1` [Torsemide] were, in that order, 0.44 ± 0.29 um and -0.48 ± 0.12 um.
On to `C#CCC(Cc1cnc2nc(N)nc(N)c2n1)c1ccc(C(=O)N[C@@H](CCC(=O)O)C(=O)O)cc1` (some centres undefined) [Pralatrexate], for which, in test [1], the “rod outer segment growth distance Dg” value was -0.27 ± 0.17 um. Further, the “rod outer segment shedding distance Ds” value in test [2] was -0.34 ± 0.19 um.
The like results for `CC1=C(CC(=O)O)c2cc(F)ccc2/C1=C\c1ccc([S+](C)[O-])cc1` (centres undefined) [Sulindac] were, in that order, -0.6 ± 0.22 um and -1.28 ± 0.28 um.
Consider `CCc1c2c(nc3ccc(OC(=O)N4CCC(N5CCCCC5)CC4)cc13)-c1cc3c(c(=O)n1C2)COC(=O)[C@]3(O)CC` [Irinotecan], for which, in test [1], the “rod outer segment growth distance Dg” value amounted to 0.27 ± 0.2 um. The “rod outer segment shedding distance Ds” value in test [2] was -1.38 ± 0.26 um.
The like results for `C[C@]12C=CC(=O)C=C1CC[C@@H]1[C@@H]2C(=O)C[C@@]2(C)[C@H]1CC[C@]2(O)C(=O)CO` [Prednisone] were, in that order, 0.04 ± 0.2 um and -0.19 ± 0.15 um.
The like results for `CCOc1nc2cccc(C(=O)OCc3oc(=O)oc3C)c2n1Cc1ccc(-c2ccccc2-c2noc(=O)[nH]2)cc1` [Azilsartan Medoxomil] were, in that order, 1.36 ± 0.15 um and -0.09 ± 0.13 um.
The like results for `CCOC(=O)[C@H](CCc1ccccc1)N[C@H]1CCc2ccccc2N(CC(=O)O)C1=O` [Benazepril HCl] were, in that order, -0.35 ± 0.17 um and -0.56 ± 0.19 um.
For the compound `CC(C)N(CCCNC(=O)Nc1ccc(C(C)(C)C)cc1)C[C@H]1O[C@@H](n2ccc3c(N)ncnc32)[C@H](O)[C@@H]1O`, in test [1], the “rod outer segment growth distance Dg” value is -0.9 ± 0.18 um. The “rod outer segment shedding distance Ds” value in test [2] was 0 ± 0.13 um.
The like results for `COc1cc2c(N3CCN(C(=O)Nc4ccc(OC(C)C)cc4)CC3)ncnc2cc1OCCCN1CCCCC1` [Tandutinib (MLN518)] were, in that order, -0.33 ± 0.097 um and -0.65 ± 0.2 um.
The like results for `CC(C)(F)C[C@H](N[C@@H](c1ccc(-c2ccc(S(C)(=O)=O)cc2)cc1)C(F)(F)F)C(=O)NC1(C#N)CC1` [Odanacatib (MK-0822)] were, in that order, -0.17 ± 0.19 um and -0.73 ± 0.22 um.
Consider `CO[C@H]1C[C@@H]2CC[C@@H](C)[C@@](O)(O2)C(=O)C(=O)N2CCCC[C@H]2C(=O)O[C@H]([C@H](C)C[C@@H]2CC[C@@H](OP(C)(C)=O)[C@H](OC)C2)CC(=O)[C@H](C)/C=C(\C)[C@@H](O)[C@@H](OC)C(=O)[C@H](C)C[C@H](C)/C=C/C=C/C=C/1C` [Ridaforolimus (Deforolimus, MK-8669)], for which, in test [1], the “rod outer segment growth distance Dg” value was -0.23 ± 0.19 um. Besides, the “rod outer segment shedding distance Ds” value in test [2] is -0.89 ± 0.24 um.
For `Oc1nc(-c2ccc(C(F)(F)F)cc2)nc2c1CSCC2`, in that order: -1.51 ± 0.14 um and 0.7 ± 0.15 um.
For `O=C(O)c1cn(-c2ccc(F)cc2)c2cc(N3CCNCC3)c(F)cc2c1=O` [Sarafloxacin HCl], in that order: 0.6 ± 0.29 um and 0.45 ± 0.27 um.
For `Cn1cc(/C=C/C(=O)c2cccc(F)c2)cc1/C=C/C(=O)NO`, in that order: -0.98 ± 0.16 um and -0.63 ± 0.19 um.
Consider `C[C@@H]1CC(=O)NN=C1c1ccc(NN=C(C#N)C#N)cc1` [Levosimendan], for which, in test [1], the “rod outer segment growth distance Dg” value was -0.2 ± 0.25 um. The “rod outer segment shedding distance Ds” value in test [2] came out at 0.63 ± 0.27 um.
As to `O=c1c(O)c(-c2cc(O)c(O)c(O)c2)oc2cc(O)cc(O)c12` [Myricetin], the “rod outer segment growth distance Dg” value in test [1] worked out at 0.3 ± 0.35 um. The “rod outer segment shedding distance Ds” value in test [2] is -0.06 ± 0.35 um.
The like results for `CCN(CC)Cc1ccc2cc(COC(=O)Nc3ccc(C(=O)NO)cc3)ccc2c1` [Givinostat (ITF2357)] were, in that order, -0.55 ± 0.32 um and 0.64 ± 0.32 um.
With `COc1cc(C2Oc3cc([C@H]4Oc5cc(O)cc(O)c5C(=O)[C@@H]4O)ccc3OC2CO)ccc1O` (some centres undefined) [Silymarin], the “rod outer segment growth distance Dg” value in test [1] was -0.45 ± 0.22 um. In addition, in test [2], the “rod outer segment shedding distance Ds” value was found to be 0.54 ± 0.24 um.
Turning to `Oc1ccc(OCc2ccccc2)cc1` [Monobenzone], the “rod outer segment growth distance Dg” value in test [1] is -1.06 ± 0.84 um. For the same compound, in test [2], the “rod outer segment shedding distance Ds” value is -1.54 ± 0.6 um.
For `COc1ccc(C(=O)CC(=O)c2ccc(C(C)(C)C)cc2)cc1` [Avobenzone], in that order: 1.05 ± 0.26 um and -0.8 ± 0.3 um.
The like results for `COc1ccc2c(c1)c(C1=C(c3c[nH]c4ccccc34)C(=O)NC1=O)cn2CCCN(C)C` were, in that order, -0.99 ± 0.2 um and -0.12 ± 0.15 um.
For `O=C1NC(=O)/C(=C/c2ccc3nccc(-c4ccncc4)c3c2)S1`, in that order: -0.66 ± 0.28 um and 0.04 ± 0.27 um.
As for `COc1cc2c(cc1OC)CC(=O)N(CCCN(C)C[C@H]1Cc3cc(OC)c(OC)cc31)CC2` [Ivabradine HCl], the “rod outer segment growth distance Dg” value in test [1] is -0.21 ± 0.58 um. Further, the “rod outer segment shedding distance Ds” value in test [2] was -1.16 ± 0.57 um.
For `COc1ccccc1Oc1c(NS(=O)(=O)c2ccc(C(C)(C)C)cc2)nc(-c2ncccn2)nc1OCCO` [Bosentan Hydrate], in test [1], the “rod outer segment growth distance Dg” value turned out to be 0.72 ± 0.12 um. Further, in test [2], the “rod outer segment shedding distance Ds” value was -0.25 ± 0.12 um.
The like results for `CCOc1nc2cccc(C(=O)O)c2n1Cc1ccc(-c2ccccc2-c2noc(=O)[nH]2)cc1` [Azilsartan] were, in that order, 1.7 ± 0.15 um and -0.19 ± 0.13 um.
For `Cn1cnc([N+](=O)[O-])c1Sc1ncnc2[nH]cnc12` [Azathioprine], in that order: -0.55 ± 0.26 um and -0.14 ± 0.11 um.
